PubChem BioAssay AID1259424 – University of Nebraska Medical Center, 2018
The whole screen tested about 14,000 reagents; this is a random part of them. 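Higher correlation or smaller distance means closer resemblance to KSR1 loss; control wells, including KSR1 knockdowns, recur on many plates.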 Further read-outs or replicates are left out here. The record does not give: the time to read-out.

Assay: 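Rank knockdowns across the genome by resemblance to the KSR1 depletion profile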 (primary screen)
Cell system: human HCT116 colon cancer cells
Reagent: siRNA pool against human genes, 50 nM
Measurement: 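Six signature mRNAs by branched-DNA multiplex assay, scaled to two housekeeping genes and non-targeting median, log2; matched to mean KSR1 knockdown profile by Pearson correlation and euclidean distance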
Direction: mean correlation with KSR1 profile: higher = expression change more like KSR1 knockdown

Depletion of CAMSAP2 gave: mean correlation with KSR1 profile -0.585.
Against FAF1, the values are mean correlation with KSR1 profile -0.323.
After knock-down of MT-ND2, the record shows mean correlation with KSR1 profile -0.0908.
For RPS15 the deposit lists mean correlation with KSR1 profile -0.189.
For NFU1, the entry reads mean correlation with KSR1 profile 0.791.
Depletion of CPNE6 resulted in: mean correlation with KSR1 profile 0.432.
After knock-down of NIPSNAP2 the results were mean correlation with KSR1 profile -0.24.
With knock-down of KLHL12, the record shows mean correlation with KSR1 profile 0.0503.
MEGF11 scored mean correlation with KSR1 profile -0.407.
For IQCH, the values are mean correlation with KSR1 profile 0.342.
After knock-down of TNFSF13, the record shows mean correlation with KSR1 profile 0.0681.
Silencing of CELA3B gave: mean correlation with KSR1 profile -0.405.

Sorted by “mean correlation with KSR1 profile” (highest first): 2 of the entries above
IQCH — mean correlation with KSR1 profile: 0.342
TNFSF13 — mean correlation with KSR1 profile: 0.0681
